Experimental data taken from article PMC8917190.
These are yes or no findings as the source states them, for the method shown. Binding seen in cells or lysates may run through a third protein. Some entries that bind do so weakly or less than the wild type.

The chains behind the UniProt entries cited, without tags or fusion partners. Residues count along the entry.
UniProt P34152: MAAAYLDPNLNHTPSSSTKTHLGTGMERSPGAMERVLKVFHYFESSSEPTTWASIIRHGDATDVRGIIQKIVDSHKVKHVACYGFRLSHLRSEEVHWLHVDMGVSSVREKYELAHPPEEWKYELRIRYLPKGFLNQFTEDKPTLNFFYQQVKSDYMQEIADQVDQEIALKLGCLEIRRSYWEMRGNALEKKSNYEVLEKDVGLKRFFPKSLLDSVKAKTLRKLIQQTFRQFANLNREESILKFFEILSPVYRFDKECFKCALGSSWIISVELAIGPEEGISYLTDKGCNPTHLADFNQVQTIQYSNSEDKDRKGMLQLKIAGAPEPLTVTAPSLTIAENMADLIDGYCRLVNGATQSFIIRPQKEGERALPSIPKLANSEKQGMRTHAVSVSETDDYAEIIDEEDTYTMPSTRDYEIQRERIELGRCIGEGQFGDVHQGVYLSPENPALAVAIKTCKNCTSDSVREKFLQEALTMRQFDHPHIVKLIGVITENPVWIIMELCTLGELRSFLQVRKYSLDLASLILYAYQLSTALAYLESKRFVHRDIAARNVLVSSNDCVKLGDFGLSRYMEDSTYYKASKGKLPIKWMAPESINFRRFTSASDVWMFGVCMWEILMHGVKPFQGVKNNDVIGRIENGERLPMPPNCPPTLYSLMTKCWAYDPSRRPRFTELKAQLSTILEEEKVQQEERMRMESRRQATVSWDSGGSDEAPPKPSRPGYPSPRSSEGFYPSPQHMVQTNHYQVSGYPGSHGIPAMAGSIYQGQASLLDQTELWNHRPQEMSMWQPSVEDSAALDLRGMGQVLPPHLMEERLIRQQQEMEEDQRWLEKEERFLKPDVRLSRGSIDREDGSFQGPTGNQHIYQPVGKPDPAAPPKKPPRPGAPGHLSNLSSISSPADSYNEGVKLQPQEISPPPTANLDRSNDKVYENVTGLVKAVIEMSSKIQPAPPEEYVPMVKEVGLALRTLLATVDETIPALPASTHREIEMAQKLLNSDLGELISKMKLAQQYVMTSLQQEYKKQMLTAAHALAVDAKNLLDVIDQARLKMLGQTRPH
UniProt P02469, residues 22-1786: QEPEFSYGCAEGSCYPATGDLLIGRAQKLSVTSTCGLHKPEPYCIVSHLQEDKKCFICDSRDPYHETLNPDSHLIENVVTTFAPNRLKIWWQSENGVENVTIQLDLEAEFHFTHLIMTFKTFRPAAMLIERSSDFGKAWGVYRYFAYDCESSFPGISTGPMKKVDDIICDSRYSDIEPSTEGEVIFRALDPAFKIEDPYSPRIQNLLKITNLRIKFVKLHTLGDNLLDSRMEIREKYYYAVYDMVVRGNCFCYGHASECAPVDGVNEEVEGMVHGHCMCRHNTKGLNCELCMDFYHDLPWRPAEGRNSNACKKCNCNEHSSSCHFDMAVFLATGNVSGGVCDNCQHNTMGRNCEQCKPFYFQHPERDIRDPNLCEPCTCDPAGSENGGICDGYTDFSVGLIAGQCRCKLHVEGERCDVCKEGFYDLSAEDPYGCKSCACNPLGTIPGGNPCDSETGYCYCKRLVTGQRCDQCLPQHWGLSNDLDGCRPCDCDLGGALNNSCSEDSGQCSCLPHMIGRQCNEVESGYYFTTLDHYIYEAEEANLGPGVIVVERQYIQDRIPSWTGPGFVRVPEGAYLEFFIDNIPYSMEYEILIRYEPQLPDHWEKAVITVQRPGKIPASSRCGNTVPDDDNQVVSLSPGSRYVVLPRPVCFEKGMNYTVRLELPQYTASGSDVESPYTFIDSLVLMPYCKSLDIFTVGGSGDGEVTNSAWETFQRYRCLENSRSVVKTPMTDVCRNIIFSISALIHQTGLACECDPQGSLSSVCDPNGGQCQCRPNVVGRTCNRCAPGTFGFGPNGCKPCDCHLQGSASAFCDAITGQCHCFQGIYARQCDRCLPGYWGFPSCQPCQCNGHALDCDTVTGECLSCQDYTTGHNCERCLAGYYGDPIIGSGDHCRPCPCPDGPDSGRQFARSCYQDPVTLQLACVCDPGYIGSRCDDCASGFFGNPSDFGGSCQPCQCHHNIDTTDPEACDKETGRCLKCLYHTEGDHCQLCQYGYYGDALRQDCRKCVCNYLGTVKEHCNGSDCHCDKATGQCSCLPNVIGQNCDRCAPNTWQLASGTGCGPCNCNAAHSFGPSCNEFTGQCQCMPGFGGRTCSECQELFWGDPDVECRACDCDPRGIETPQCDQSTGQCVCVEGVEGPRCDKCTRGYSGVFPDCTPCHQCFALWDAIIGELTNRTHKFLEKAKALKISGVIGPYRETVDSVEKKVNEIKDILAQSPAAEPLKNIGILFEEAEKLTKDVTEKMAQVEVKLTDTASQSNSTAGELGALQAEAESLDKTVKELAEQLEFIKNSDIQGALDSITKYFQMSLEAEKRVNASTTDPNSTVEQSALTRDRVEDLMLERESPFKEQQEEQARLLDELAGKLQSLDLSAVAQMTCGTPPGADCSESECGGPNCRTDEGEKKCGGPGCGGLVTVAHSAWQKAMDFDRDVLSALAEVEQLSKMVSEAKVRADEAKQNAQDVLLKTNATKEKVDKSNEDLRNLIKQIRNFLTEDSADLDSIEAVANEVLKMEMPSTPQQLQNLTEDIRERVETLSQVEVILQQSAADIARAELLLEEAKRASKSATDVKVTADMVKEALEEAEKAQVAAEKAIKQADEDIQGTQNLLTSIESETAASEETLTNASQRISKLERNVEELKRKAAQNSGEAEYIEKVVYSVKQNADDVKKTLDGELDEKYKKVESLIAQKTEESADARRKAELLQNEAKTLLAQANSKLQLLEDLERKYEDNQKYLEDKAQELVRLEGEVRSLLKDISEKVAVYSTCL

Biological target: focal adhesion kinase (mouse (endogenous in chondrocytes of newborn C57BL/6J mice)) (UniProt P34152)
Assay: co-IP; Pierce co-immunoprecipitation kit; anti-FAK antibody (bait) bound to the resin, incubated with chondrocyte lysate overnight (12-16 h); eluate probed by western blot

binding: binds
Substance: laminin β1 (from UniProt P02469 22-1786)
